Source: PubChem BioAssay AID588590 (National Center for Advancing Translational Sciences (NCATS), 2011)
Screen size: about 390,000 compounds; about 4,000 (1%) were called active. Inconclusive results, whose numbers are uncertain, are shown with a selection of clear calls. Calls follow the shape of the dose curve; as a rule, active = well fitted inhibition curve with a large enough effect; inconclusive = small, poorly fitted or top-dose-only effect, or another doubt; inactive = no such curve, though single readings can be large or run the other way. Potencies beside an inconclusive call are fits to weak or partial responses and may not hold up.

The chains behind the UniProt entries cited, without tags or fusion partners. Where a name states a change or a piece, a line headed by the entry shows the natural chain unless it says otherwise.
UniProt Q9UNA4: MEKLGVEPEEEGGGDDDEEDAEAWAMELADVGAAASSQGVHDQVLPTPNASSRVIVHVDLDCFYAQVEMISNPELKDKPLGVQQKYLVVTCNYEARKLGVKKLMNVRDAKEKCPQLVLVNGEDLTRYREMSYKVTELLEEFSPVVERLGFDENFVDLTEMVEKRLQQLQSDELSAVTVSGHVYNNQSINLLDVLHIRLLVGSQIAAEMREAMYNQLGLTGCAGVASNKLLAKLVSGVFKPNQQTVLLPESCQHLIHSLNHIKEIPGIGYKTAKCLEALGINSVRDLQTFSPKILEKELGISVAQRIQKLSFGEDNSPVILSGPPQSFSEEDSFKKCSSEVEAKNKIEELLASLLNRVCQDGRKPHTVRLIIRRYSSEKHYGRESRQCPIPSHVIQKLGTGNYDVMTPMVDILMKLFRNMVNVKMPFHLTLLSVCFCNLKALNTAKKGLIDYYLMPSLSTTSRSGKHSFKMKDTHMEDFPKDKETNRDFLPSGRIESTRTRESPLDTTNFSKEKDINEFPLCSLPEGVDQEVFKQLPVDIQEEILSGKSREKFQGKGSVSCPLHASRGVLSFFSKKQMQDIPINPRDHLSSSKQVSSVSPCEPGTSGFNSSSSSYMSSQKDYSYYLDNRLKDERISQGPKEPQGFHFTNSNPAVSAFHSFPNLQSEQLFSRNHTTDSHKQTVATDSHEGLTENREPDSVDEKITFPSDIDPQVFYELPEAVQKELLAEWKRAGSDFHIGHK

target: DNA polymerase iota (Homo sapiens) (UniProt Q9UNA4); assay: qHTS for Inhibitors of Polymerase Iota; settings: Pol iota fluorescent replication assay, 10 min; series mostly up to 115 µM; activity, negative = inhibition: at the top concentration
Procedure, shortened: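 Fluorescent replication assay read twice, at 0 min and 10 min after adding 50 nM (final) substrate. Enzyme (10 nM) and compounds were first incubated 15 min at room temperature; enzyme-free buffer wells were negative controls.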
Potency is read from the fitted curve at half-maximal effect.

**Q.** With `COc1cc(C(CC(=O)Nc2cc(C)ccc2C)N2Cc3ccccc3C2=O)cc(OC)c1OC` (centres undefined) as the compound, how does the “activity, negative = inhibition” value read?
**A.** inactive: 13%

**Q.** With `Cc1ccc(N2C(=O)/C(=C\c3ccco3)SC2=S)cc1` as the compound, how does the Potency read?
**A.** inconclusive: 15.8 µM [inhibitor, full curve, poor fit]

**Q.** With `CCc1nnc(N/N=C/c2c(F)cccc2Cl)n1N` as the compound, how does the Potency read?
**A.** active: 10 µM

**Q.** How did the Potency turn out when `CC1CCCCN1C(=O)CSc1nnc(-c2ccco2)n1CC1CCCO1` (centres undefined) was run?
**A.** inconclusive: 112 µM [inhibitor, single point]

**Q.** For `O=C(Nc1ccc2nc3ccccc3nc2c1)c1ccccc1`, which Potency is on record?
**A.** inconclusive: 56.2 µM [inhibitor, partial curve, poor fit]

**Q.** For `O=C1CCCN1c1cc(Cl)cc(Cl)c1`, which “activity, negative = inhibition” value is on record?
**A.** inactive: 74%

**Q.** Which “activity, negative = inhibition” value does the source give for `COc1ccc(C2CC(=O)Oc3cc(O)cc(O)c32)cc1` (centres undefined) here?
**A.** inactive: 18.6%

**Q.** `O=S(=O)(O)c1cccc2c(N=Nc3ccc(O)c4ncccc34)cccc12` was tested. Which Potency did it give?
**A.** inconclusive: 8.91 µM [inhibitor, full curve, poor fit]

**Q.** How did the Potency turn out when `COc1cc(/C=C2\SC(=S)N(C(C(=O)O)c3ccccc3)C2=O)ccc1O` (centres undefined) was run?
**A.** active: 28.2 µM

**Q.** With `CCOCCc1nn2c(=O)cc(COC(=O)CNC(=O)c3ccc(F)cc3)nc2s1` as the compound, how does the “activity, negative = inhibition” value read?
**A.** inactive: 15.9%

**Q.** How did the Potency turn out when `Cc1ccc(CSc2nc(-c3ccc(C(C)(C)C)cc3)nc3cc(=O)[nH]n23)cc1` was run?
**A.** inconclusive: 89.1 µM [inhibitor, single point]

**Q.** Which Potency does the source give for `O=C1ON=C(c2ccccc2)/C1=C/c1ccc(-c2ccccc2[N+](=O)[O-])o1` here?
**A.** inconclusive: 20 µM [inhibitor, full curve, poor fit]

**Q.** With `O=C(N/C=N/OCc1cccc(C(F)(F)F)c1)N1OC[C@@H]2COc3ccc4ccccc4c3[C@@H]21` as the compound, how does the Potency read?
**A.** inconclusive: 79.4 µM [inhibitor, single point]

**Q.** With `COc1cc2c(=O)n(CCCN3CCOCC3)c(=S)[nH]c2c(OC)c1OC` as the compound, how does the Potency read?
**A.** inconclusive: 39.8 µM [inhibitor, single point]

**Q.** `Cc1c(C(=O)OCC2CCCO2)[nH]c2c1C(=O)CC(c1ccco1)C2` (centres undefined) was tested. Which Potency did it give?
**A.** inconclusive: 0.794 µM [inhibitor, full curve, poor fit]

**Q.** Which “activity, negative = inhibition” value does the source give for `O=C(O)CNc1ccc(S(=O)(=O)C(F)(F)F)cc1[N+](=O)[O-]` here?
**A.** inactive: 1.58%

**Q.** `O=C(NCCc1ccccc1)C1CCCN(S(=O)(=O)c2cnc[nH]2)C1` (centres undefined) was tested. Which Potency did it give?
**A.** inconclusive: 70.8 µM [inhibitor, single point]

**Q.** Which Potency does the source give for `O=C(O)CN1C(=O)/C(=C\c2ccc(OC(=O)c3ccco3)cc2)SC1=S` here?
**A.** inconclusive: 31.6 µM [inhibitor, single point]

**Q.** `Cc1c(NC(=O)c2cc3nc(-c4ccccc4)cc(C)n3n2)c(=O)n(-c2ccccc2)n1C` was tested. Which Potency did it give?
**A.** inconclusive: 25.1 µM [inhibitor, single point]

**Q.** How did the Potency turn out when `Cc1cc(C)cc(OCC(=O)Nc2cc(NC(=O)COc3cc(C)cc(C)c3)cc(C(=O)O)c2)c1` was run?
**A.** inconclusive: 20 µM [inhibitor, partial curve, poor fit]

**Q.** For `Cc1c(NC(=O)c2cc(-c3cccs3)on2)c(=O)n(-c2ccccc2)n1C`, which Potency is on record?
**A.** inconclusive: 63.1 µM [inhibitor, partial curve, poor fit]

**Q.** How did the Potency turn out when `CC(=O)c1ccc(-c2ccc(C(=O)N3CCCc4ccccc43)o2)cc1` was run?
**A.** inconclusive: 10 µM [inhibitor, single point]

**Q.** `COC(=O)C1=C(C)N=c2s/c(=C/c3ccoc3)c(=O)n2C1c1ccccc1` (centres undefined) was tested. Which “activity, negative = inhibition” value did it give?
**A.** inactive: -3.46%

**Q.** With `Cc1ccc(CN2CCC(C(=O)NCCC(C)C)CC2)o1` as the compound, how does the Potency read?
**A.** inconclusive: 7.08 µM [inhibitor, single point]

**Q.** With `CCOC(=O)C1CCN(S(=O)(=O)c2ccc(N3CCCCS3(=O)=O)cc2)CC1` as the compound, how does the “activity, negative = inhibition” value read?
**A.** inactive: 20.1%

**Q.** `NNC(=O)/C(=C\c1ccco1)NC(=O)c1ccco1` was tested. Which Potency did it give?
**A.** inconclusive: 0.891 µM [inhibitor, partial curve, poor fit]

**Q.** With `CCCC(C(=O)NCCC(C)C)N(Cc1ccccc1)C(=O)c1snc(C(N)=O)c1N` (centres undefined) as the compound, how does the “activity, negative = inhibition” value read?
**A.** inactive: 14.7%

**Q.** `CCn1c(SCc2ccc(F)cc2Cl)nc(=O)c2c(C(=O)OC)cc(C3CC3)nc21` was tested. Which “activity, negative = inhibition” value did it give?
**A.** inactive: -9.77%

**Q.** For `Cc1cccc2c(N=NC(=O)C(C)n3cnc4ccccc4c3=O)c(O)[nH]c12` (centres undefined), which Potency is on record?
**A.** inconclusive: 20 µM [inhibitor, partial curve, poor fit]

**Q.** With `COc1cccc(CN2C(=O)[C@H]3Cc4c([nH]c5ccccc45)C(C)(C)N3C2=O)c1` as the compound, how does the Potency read?
**A.** inconclusive: 10 µM [inhibitor, partial curve]

**Q.** For `NC(=O)c1ccsc1NC(=O)COC(=O)c1ccccc1NCc1ccco1`, which Potency is on record?
**A.** inconclusive: 22.4 µM [inhibitor, full curve, poor fit]

**Q.** Which Potency does the source give for `CCc1ccc(-n2nc(CO)c(C(=O)NCC(c3ccccc3)c3ccccc3)n2)cc1` here?
**A.** inconclusive: 89.1 µM [inhibitor, single point]

**Q.** With `Cc1ccc(N(Cc2cc3ccccc3[nH]c2=O)C(=O)c2cccc(Cl)c2)cc1` as the compound, how does the Potency read?
**A.** inconclusive: 89.1 µM [inhibitor, single point]

**Q.** For `O=C(O)Cc1ccc(O)c(O)c1`, which Potency is on record?
**A.** inconclusive: 79.4 µM [inhibitor, partial curve]

**Q.** With `Cc1ccc(CSc2nnc(-n3c(=O)c(C#N)cc4c(=O)n5cc(C)ccc5nc43)s2)cc1` as the compound, how does the “activity, negative = inhibition” value read?
**A.** inactive: 15.2%

**Q.** Which “activity, negative = inhibition” value does the source give for `Cc1ccc(C(=O)Nc2sc3c(c2C(=O)NCc2ccco2)CCCC3)cc1` here?
**A.** inactive: 7.3%

**Q.** Which “activity, negative = inhibition” value does the source give for `CC(=O)Nc1ccc(S(=O)(=O)Nc2cc([N+](=O)[O-])ccc2C)cc1` here?
**A.** inactive: 41.6%

**Q.** `O=C1CN(S(=O)(=O)c2ccccc2)c2ccccc2N1` was tested. Which “activity, negative = inhibition” value did it give?
**A.** inactive: 27.9%

**Q.** `CC(=O)Nc1ccc2nc(SCC(=O)NCCOc3ccccc3)sc2c1` was tested. Which Potency did it give?
**A.** inconclusive: 50.1 µM [inhibitor, single point]

**Q.** `CCCc1nc(SCc2ccccc2Cl)n[nH]1` was tested. Which Potency did it give?
**A.** inconclusive: 39.8 µM [inhibitor, single point]

**Q.** `COc1cc(Cl)c(NC(=O)CN(C)S(=O)(=O)c2ccc3c(c2)CCCC(=O)N3)c(OC)c1` was tested. Which “activity, negative = inhibition” value did it give?
**A.** inactive: -0.766%

**Q.** For `CN(C)CCOc1ccccc1Cc1ccccc1`, which Potency is on record?
**A.** inconclusive: 89.1 µM [inhibitor, single point]

**Q.** How did the Potency turn out when `CSc1ncccc1C(=O)OCc1ccccc1F` was run?
**A.** inconclusive: 0.794 µM [inhibitor, partial curve, poor fit]

**Q.** With `O=C1c2ccccc2-c2c1cccc2C(=O)N1CCCCCC1` as the compound, how does the Potency read?
**A.** inconclusive: 89.1 µM [inhibitor, single point]
